Source: PMC10739977

Sequences of proteins named here, by UniProt entry; tags and fusion partners are left off.
UniProt Q63528: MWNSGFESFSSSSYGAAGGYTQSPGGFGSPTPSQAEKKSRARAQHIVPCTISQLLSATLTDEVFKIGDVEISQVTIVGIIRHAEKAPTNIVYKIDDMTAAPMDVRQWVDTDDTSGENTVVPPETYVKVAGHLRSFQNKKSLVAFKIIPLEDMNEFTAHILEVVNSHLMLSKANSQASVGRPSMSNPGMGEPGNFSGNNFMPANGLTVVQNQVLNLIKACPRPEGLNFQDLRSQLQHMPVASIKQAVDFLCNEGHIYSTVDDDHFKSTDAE

T1: Fc-tagged human Angptl3 (human) (UniProt Q9Y5C1)
T1 sequence: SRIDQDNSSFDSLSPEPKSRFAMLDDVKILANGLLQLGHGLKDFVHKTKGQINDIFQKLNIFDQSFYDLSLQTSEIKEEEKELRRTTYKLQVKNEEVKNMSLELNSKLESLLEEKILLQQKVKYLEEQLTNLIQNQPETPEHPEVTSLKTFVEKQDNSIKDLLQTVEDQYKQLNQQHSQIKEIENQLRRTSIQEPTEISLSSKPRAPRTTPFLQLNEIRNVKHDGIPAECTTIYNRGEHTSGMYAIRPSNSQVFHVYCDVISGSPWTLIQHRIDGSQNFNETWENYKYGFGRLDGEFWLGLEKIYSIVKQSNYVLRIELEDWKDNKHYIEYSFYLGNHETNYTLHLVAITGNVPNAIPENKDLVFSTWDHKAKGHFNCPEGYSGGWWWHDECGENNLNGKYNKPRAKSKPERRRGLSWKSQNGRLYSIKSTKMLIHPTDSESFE


Target: T1, Fc-tagged human Angptl3 (human)
Experiment: affinity purification with mass spectrometry; SILAC; extracts (about 4 mg) of light-labelled Fc and heavy-labelled Fc-Angptl3 McA cells incubated with protein-A beads at 4 °C overnight; lysis buffer 50 mM Tris-HCl pH 7.8, 150 mM NaCl, 1% NP-40, 0.1% sodium deoxycholate, 1 mM EDTA; two replicates

Row | binding | Molecule
1 | binds | RPA2 (from UniProt Q63528 1-270)
2 | binds | SmarcAL1 (SWI/SNF-related matrix-associated actin-dependent regulator of chromatin subfamily A-like protein 1) (protein, UniProt B4F769 1-910) MSLPLTEEQRKKIEENRQKALARRAEKLWAEQPQSTASGSSAARPSQCKQNSLLNLPAEPSKPEGHATISKGQNLNNSLPAAQRPHSSPCFQPSTAEEAKGLWKSEGKMSAACPNPSPPEVSNQQLLGSKSSEGHPQATQDTAASCPRPFPRDPKLEAKAGRPSTSGQSISDTFYALGEKTPKTDGRPAKALQTSPQKASCLRGMCLRTGDRFRVKIGYNKELIEVFKSLPSRRYDSFTKTWDFSMSDYRALMKAVERLSTVSLQPLEEVDGTGGQTSLPSAPSLTFVTGRCMLISRARFEVDIGYSEVVIALFKQMESRNYDPKTRKWNFLLEEHNKLIARSRELKQVQLDPLPKTLTLAFASQLEKTSLQSKADVPEADLSGVDAKLVSNLMPFQREGVSFAISKRGRLLLADDMGLGKTIQAICIAAFYRKEWPLLVVVPSSVRFTWEQAFLRWLPSLSPEDINVVVTGKGRLTAGLVNIVSFDLLSKLEKQLKTPFKVVIIDESHFLKNIKTARCRAAVPILKVAKRVILLSGTPAMSRPAELYTQIIAVKPTFFPQFHAFGLRYCDAKRLPWGWDYSGSSNLGELKLLLEEAVMLRRLKSDVLSQLPAKQRKMVVVNPGRISTRAKAALDAAAKEMTKDKTKQQQKEALLVFFNRTAEAKIPCVIEYILDLLESGREKFLVFAHHKVLLDAIAKELERKNVQHIRIDGSTPSADREDLCQQFQLSKGHTVAVLSITAANMGLTFSSADLVVFAELFWNPGVLIQAEDRVHRIGQTNSVGIHYLVAKGTADDYLWPLIQEKIKVLGEAGLSETNFSEMTEATDYLYKDPKQKTIYSLFQQSFEDDGNDMEFLEAAESFELGSTSGTSGNSSQELGDITDENALADSPPKKRRFEFFDNWDSFTSPF

These are yes or no findings as the source states them, for the method shown. Binding seen in cells or lysates may run through a third protein. These calls come from enrichment with a bait or labelling near it, and not all partners need be listed. Tags and fused reporters may be left off the sequences shown.
